Experimental data reported in the supplement of paper PMC10849652.
The list shows a part of the results.

Sequences of proteins named here, by UniProt entry; tags and fusion partners are left off. A change or cut given only in a name is not applied to a line headed by its entry.
UniProt Q14642: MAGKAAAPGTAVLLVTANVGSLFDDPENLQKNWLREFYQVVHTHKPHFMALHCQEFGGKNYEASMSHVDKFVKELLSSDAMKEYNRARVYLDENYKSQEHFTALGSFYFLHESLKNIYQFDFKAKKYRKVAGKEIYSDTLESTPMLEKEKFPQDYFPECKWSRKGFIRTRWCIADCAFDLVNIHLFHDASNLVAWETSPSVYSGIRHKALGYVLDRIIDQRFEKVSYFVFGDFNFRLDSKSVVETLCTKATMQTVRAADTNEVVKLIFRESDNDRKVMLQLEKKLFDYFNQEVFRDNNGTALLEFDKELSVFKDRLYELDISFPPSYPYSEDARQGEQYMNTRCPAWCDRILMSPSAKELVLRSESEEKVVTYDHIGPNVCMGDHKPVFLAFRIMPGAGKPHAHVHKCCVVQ
UniProt P30939: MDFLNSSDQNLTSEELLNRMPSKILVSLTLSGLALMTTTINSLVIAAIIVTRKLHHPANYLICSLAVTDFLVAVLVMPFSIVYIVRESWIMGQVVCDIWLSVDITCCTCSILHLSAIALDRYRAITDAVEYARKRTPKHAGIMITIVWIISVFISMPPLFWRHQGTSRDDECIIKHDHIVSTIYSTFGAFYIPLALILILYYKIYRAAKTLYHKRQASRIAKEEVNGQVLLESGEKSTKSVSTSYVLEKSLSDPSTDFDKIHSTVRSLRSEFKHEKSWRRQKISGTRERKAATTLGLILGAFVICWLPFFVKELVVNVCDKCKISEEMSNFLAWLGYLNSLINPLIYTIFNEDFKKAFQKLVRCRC
UniProt Q14773: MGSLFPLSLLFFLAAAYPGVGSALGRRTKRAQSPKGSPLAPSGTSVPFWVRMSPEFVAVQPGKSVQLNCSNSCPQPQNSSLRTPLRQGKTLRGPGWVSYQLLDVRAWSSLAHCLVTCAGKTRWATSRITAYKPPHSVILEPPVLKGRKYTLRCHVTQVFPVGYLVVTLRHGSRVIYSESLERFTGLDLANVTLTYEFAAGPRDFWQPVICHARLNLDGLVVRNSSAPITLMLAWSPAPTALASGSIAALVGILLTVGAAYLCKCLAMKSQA
UniProt Q9NRY2: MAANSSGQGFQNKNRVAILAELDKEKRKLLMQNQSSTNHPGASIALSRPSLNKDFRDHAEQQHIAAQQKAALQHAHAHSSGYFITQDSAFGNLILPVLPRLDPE
UniProt P22304: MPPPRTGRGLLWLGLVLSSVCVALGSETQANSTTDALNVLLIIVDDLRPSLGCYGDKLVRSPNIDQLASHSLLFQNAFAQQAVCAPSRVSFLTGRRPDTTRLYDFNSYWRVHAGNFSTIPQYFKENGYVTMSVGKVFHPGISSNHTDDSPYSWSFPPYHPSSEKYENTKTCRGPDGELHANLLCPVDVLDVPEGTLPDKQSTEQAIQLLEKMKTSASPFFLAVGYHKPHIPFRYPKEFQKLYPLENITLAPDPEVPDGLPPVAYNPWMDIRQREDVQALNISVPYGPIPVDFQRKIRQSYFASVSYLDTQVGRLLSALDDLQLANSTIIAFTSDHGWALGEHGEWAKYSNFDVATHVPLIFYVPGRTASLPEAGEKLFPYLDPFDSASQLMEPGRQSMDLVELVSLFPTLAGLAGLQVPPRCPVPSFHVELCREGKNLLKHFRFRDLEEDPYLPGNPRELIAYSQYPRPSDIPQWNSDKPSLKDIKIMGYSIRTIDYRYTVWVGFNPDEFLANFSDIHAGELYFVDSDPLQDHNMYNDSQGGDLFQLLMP
UniProt Q96D96: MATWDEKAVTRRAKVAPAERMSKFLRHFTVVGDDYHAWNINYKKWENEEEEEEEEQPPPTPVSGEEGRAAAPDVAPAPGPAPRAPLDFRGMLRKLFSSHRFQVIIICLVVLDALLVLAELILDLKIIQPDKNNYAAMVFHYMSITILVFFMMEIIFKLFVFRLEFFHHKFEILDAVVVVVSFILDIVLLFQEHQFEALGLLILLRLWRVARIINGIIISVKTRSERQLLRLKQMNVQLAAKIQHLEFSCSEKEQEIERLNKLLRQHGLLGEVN
UniProt Q9H7X7: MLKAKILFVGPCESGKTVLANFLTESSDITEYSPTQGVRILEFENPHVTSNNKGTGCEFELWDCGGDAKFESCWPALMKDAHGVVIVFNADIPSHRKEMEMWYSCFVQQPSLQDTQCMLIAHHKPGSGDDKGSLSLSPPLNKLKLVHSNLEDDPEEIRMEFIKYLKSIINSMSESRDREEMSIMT
UniProt P0DMQ5: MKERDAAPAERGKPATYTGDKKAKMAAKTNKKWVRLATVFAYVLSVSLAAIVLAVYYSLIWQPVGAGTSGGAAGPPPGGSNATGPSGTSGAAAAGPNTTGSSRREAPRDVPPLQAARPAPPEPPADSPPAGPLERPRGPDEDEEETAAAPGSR
UniProt Q13261, whole entry, looked up: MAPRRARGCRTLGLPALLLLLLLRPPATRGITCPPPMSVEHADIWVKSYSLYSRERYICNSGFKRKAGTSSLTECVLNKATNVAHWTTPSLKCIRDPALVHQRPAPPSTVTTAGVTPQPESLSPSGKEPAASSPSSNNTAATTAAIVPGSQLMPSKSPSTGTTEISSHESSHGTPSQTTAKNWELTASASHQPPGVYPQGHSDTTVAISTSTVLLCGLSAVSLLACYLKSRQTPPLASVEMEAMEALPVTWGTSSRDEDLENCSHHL
UniProt P78552: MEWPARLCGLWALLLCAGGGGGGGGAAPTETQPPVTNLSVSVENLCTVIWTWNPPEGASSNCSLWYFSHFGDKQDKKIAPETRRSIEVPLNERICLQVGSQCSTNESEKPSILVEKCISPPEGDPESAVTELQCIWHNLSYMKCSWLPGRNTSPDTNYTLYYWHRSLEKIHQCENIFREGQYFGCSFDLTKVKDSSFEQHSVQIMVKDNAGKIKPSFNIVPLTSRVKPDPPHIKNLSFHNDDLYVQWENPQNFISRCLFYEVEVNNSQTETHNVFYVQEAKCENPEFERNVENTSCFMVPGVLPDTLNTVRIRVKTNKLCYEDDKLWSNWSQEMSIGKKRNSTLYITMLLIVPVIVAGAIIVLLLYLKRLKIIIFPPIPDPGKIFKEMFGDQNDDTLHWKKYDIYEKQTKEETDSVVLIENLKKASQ
UniProt Q9ULG1, whole entry, looked up: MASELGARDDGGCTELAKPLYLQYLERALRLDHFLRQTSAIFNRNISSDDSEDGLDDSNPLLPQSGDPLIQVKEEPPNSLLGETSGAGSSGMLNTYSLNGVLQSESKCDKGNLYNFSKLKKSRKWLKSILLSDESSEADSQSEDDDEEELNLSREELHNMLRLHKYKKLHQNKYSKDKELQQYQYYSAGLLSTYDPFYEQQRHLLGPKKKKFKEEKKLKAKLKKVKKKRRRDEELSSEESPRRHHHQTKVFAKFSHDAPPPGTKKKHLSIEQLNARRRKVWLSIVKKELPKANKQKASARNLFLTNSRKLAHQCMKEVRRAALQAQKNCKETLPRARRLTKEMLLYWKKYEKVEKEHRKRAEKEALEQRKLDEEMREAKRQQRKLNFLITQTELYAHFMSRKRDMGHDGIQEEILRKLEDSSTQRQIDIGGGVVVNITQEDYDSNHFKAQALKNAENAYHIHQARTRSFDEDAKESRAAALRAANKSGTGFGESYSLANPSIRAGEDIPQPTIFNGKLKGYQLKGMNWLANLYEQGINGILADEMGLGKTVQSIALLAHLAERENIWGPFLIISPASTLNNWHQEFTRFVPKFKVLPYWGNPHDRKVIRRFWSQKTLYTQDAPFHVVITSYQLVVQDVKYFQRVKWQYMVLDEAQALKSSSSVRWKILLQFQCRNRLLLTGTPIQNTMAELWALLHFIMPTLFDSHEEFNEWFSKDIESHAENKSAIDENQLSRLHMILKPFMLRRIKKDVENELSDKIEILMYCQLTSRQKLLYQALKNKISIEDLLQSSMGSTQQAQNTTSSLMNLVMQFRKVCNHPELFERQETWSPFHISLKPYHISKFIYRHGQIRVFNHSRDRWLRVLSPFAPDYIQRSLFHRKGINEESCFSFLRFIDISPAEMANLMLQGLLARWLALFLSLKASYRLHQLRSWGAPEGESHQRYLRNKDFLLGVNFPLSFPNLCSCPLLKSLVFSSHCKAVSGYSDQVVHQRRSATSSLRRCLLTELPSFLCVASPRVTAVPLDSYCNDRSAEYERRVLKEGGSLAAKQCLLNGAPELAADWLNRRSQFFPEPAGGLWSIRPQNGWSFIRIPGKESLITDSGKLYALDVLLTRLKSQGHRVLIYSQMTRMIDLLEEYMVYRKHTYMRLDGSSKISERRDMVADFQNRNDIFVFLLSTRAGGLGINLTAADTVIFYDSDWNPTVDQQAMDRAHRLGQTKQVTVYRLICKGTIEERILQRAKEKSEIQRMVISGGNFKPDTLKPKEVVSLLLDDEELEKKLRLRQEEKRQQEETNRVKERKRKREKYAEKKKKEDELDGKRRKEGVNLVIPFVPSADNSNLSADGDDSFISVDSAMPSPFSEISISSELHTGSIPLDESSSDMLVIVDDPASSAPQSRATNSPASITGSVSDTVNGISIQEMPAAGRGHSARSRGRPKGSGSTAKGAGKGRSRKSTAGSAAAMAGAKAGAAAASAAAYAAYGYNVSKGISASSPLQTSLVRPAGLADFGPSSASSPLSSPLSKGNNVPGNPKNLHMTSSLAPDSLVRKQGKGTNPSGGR
UniProt Q96G21: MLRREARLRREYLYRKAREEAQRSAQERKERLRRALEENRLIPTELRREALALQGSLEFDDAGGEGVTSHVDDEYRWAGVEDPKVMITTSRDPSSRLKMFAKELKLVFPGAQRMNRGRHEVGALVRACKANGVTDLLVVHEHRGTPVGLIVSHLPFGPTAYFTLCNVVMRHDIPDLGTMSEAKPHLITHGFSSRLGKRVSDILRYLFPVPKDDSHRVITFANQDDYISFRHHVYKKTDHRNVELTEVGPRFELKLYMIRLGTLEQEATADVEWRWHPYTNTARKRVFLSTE
UniProt Q9UNL4, whole entry, looked up: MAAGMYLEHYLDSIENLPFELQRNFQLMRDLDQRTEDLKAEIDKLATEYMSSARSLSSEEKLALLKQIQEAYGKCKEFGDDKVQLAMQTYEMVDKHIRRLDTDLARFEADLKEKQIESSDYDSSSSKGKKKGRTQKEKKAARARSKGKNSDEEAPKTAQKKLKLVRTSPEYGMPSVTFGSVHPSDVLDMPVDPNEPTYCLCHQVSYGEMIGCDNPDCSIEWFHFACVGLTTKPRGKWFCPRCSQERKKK
UniProt Q9H160: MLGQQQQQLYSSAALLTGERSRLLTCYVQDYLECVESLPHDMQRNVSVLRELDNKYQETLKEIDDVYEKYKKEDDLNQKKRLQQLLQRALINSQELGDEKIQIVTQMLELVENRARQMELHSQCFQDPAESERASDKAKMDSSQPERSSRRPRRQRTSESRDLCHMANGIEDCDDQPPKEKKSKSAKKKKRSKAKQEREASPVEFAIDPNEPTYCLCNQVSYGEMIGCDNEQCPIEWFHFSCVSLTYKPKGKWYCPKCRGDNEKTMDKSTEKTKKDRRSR
UniProt Q9BYX4: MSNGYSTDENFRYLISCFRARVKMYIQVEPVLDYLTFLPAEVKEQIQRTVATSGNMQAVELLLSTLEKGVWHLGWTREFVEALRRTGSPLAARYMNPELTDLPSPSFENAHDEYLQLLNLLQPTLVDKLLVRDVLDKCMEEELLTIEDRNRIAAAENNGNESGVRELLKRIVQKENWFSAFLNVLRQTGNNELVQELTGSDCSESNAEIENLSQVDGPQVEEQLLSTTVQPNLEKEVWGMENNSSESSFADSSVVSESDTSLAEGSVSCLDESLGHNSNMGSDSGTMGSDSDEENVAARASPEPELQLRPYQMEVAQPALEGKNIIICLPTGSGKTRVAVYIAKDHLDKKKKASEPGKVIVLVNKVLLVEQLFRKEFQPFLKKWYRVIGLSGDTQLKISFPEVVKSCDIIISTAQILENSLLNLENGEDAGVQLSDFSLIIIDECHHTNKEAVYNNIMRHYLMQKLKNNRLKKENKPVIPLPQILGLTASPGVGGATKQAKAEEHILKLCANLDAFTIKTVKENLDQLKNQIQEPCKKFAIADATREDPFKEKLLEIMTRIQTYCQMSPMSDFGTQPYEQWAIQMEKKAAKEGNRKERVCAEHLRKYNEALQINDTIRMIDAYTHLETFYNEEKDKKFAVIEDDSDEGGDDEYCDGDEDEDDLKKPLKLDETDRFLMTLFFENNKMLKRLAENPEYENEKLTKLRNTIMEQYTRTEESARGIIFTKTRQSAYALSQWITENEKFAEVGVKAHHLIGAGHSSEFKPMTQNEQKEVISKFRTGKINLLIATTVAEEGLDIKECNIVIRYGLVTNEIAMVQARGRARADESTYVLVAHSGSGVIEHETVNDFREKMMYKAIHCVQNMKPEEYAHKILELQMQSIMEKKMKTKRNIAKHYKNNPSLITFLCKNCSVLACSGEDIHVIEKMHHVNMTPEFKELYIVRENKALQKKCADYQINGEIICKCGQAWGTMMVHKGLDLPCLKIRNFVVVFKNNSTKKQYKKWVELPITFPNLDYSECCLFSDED

Each target was assayed with NCC(=O)Nc1ccc(-n2nc(C(F)(F)F)cc2-c2ccc3c(ccc4ccccc43)c2)cc1 (assay: log2 fold change, soluble protein after heating vs DMSO (PISA); higher = thermal stabilisation; K562 lysate, 10 uM; active = over 0.2 and 3.5 SD of the protein, either way, in both replicates (recomputed)).
Procedure, shortened: (§1)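 Soluble protein was defined as the supernatant remaining after 21,000xg for 90 min, following pooling of heated aliquots and adjustment to 0.5% NP-40 at 4°C. Before that, crude K562 extract at 1 mg/mL protein in PBS pH 7.4 with 1 mM MgCl2 was treated with 10 μM compound for 30 min and heated for 3 min across 48°C-58°C. Quantification used TMTpro 16plex LC-MS/MS with channel sums equalised, and values are log-two fold changes in thermal stability relative to solvent controls from duplicates.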
With INPP5A (UniProt Q14642) the log2 fold change was inactive: -0.183.
In the case of HTR1F (UniProt P30939), the log2 fold change was inactive: 0.071.
IGSF1 isoform 4 (UniProt Q8N6C5) was tested, and the log2 fold change was inactive: -0.098.
In the case of ICAM4 isoform 3 (UniProt Q14773), the log2 fold change was inactive: 0.147.
For HYDIN (UniProt Q4G0P3), the log2 fold change was inactive: 0.028.
With IGLL5 (UniProt B9A064) the log2 fold change was inactive: -0.302.
With INIP (UniProt Q9NRY2) the log2 fold change was inactive: -0.134.
In the case of IDH3A isoform 2 (UniProt P50213), the log2 fold change was inactive: 0.043.

Each target was assayed with O=C(CCCCCCC(=O)Nc1ccccc1)NO [vorinostat] in the same assay as above.
Procedure, shortened: as §1
For INPP5A (UniProt Q14642), the log2 fold change was inactive: -0.164.
With IDS (UniProt P22304) the log2 fold change was inactive: 0.237.
In the case of HYOU1, A0A494C039, the log2 fold change was inactive: 0.316.
With ICAM4 isoform 3 (UniProt Q14773) the log2 fold change was inactive: 0.112.
INPP5D (UniProt Q92835) was tested, and the log2 fold change was inactive: -0.486.
In the case of HVCN1 (UniProt Q96D96), the log2 fold change was inactive: 0.143.
For INO80B (UniProt Q9C086), the log2 fold change was inactive: -0.112.
With IGLL5 (UniProt B9A064) the log2 fold change was inactive: 0.008.
In the case of IFI16 (UniProt Q16666), the log2 fold change was inactive: -0.095.
For IFT22 (UniProt Q9H7X7), the log2 fold change was inactive: 0.003.
For INIP (UniProt Q9NRY2), the log2 fold change was inactive: 0.362.
For IGHV3-72, A0A4W8ZXM2, the log2 fold change was inactive: 0.071.

Each target was assayed with O=C(O)c1ccc2c(c1)nc(Nc1cccc(Cl)c1)c1ccncc12 [silmitasertib] in the same assay as above.
Procedure, shortened: as §1
INPP5A (UniProt Q14642) was tested, and the log2 fold change was inactive: -0.002.
With IDS (UniProt P22304) the log2 fold change was inactive: -0.144.
With HYOU1, A0A494C039 the log2 fold change was inactive: 0.177.
With ICAM4 isoform 3 (UniProt Q14773) the log2 fold change was inactive: 0.042.
In the case of INPP5D (UniProt Q92835), the log2 fold change was inactive: -0.195.
For HVCN1 (UniProt Q96D96), the log2 fold change was inactive: 0.195.
For INO80B (UniProt Q9C086), the log2 fold change was inactive: 0.057.
IGLL5 (UniProt B9A064) was tested, and the log2 fold change was inactive: -0.077.
With IFI16 (UniProt Q16666) the log2 fold change was inactive: 0.07.
IFT22 (UniProt Q9H7X7) was tested, and the log2 fold change was inactive: 0.042.
For INIP (UniProt Q9NRY2), the log2 fold change was inactive: 0.063.
With IGHV3-72, A0A4W8ZXM2 the log2 fold change was inactive: 0.219.

Each target was assayed with O=C1NC(=O)C(c2cnc3ccccn23)=C1c1cn2c3c(cc(F)cc13)CN(C(=O)N1CCCCC1)CC2 in the same assay as above.
Procedure, shortened: as §1
In the case of INAFM2 (UniProt P0DMQ5), the log2 fold change was inactive: -0.03.
In the case of IL15RA (UniProt Q13261), the log2 fold change was inactive: 0.049.
With ILF3 (UniProt K7EKJ9) the log2 fold change was inactive: -0.036.
For IDUA (UniProt P35475), the log2 fold change was inactive: 0.057.
With IL13RA1 (UniProt P78552) the log2 fold change was inactive: 0.056.
For IFT81 (UniProt Q8WYA0), the log2 fold change was inactive: 0.067.
In the case of IGLL5 (UniProt B9A064), the log2 fold change was inactive: 0.101.
For INO80 (UniProt Q9ULG1), the log2 fold change was inactive: 0.035.
IMP4 (UniProt Q96G21) was tested, and the log2 fold change was inactive: 0.024.
ING4 (UniProt Q9UNL4) was tested, and the log2 fold change was inactive: -0.011.
ING2 (UniProt Q9H160) was tested, and the log2 fold change was inactive: 0.

What follows are targets tested with c1cn2cc(-c3ccc4cn[nH]c4c3)nc(Nc3ccc(N4CCOCC4)cc3)c2n1 [entospletinib] in the same assay as above.
Procedure, shortened: as §1
In the case of INPP5A (UniProt Q14642), the log2 fold change was inactive: -0.068.
ICAM4 (UniProt Q14773) was tested, and the log2 fold change was inactive: 0.009.
With IDS (UniProt P22304) the log2 fold change was inactive: -0.088.
For HSPH1 isoform 2 (UniProt Q92598), the log2 fold change was inactive: 0.047.
In the case of IGSF1 isoform 4 (UniProt Q8N6C5), the log2 fold change was inactive: -0.232.
For HYOU1, A0A494C039, the log2 fold change was inactive: 0.088.
ICAM4 isoform 3 (UniProt Q14773) was tested, and the log2 fold change was inactive: -0.419.
HUWE1 isoform 2 (UniProt Q7Z6Z7) was tested, and the log2 fold change was inactive: -0.077.
HYDIN (UniProt Q4G0P3) was tested, and the log2 fold change was inactive: -0.005.
In the case of HVCN1 (UniProt Q96D96), the log2 fold change was inactive: -0.469.
In the case of IGLL5 (UniProt B9A064), the log2 fold change was inactive: -0.118.
With IFIH1 (UniProt Q9BYX4) the log2 fold change was inactive: -0.191.
In the case of IFT22 (UniProt Q9H7X7), the log2 fold change was inactive: -0.179.
In the case of HUWE1, A0A087X1S3, the log2 fold change was inactive: 0.001.
In the case of ING2 (UniProt Q9H160), the log2 fold change was inactive: 0.206.
For IDH3A isoform 2 (UniProt P50213), the log2 fold change was inactive: 0.012.
